From publication PMC10096123, “14-Substituted Diquinothiazines as a New Group of Anticancer Agents” (Molecules, 2023) come the findings set out here.

Common to all, as to assay type: cell-based, human
The test system of series [1] is A549 cells. Briefly: 72-h MTT viability assay, A549. The note with it: selectivity index, apparently IC50 BEAS-2B / IC50 A549; definition not given. The text has this: (§1) The IC50 for cell viability was described with a dose of the drug, with a 50% reduction in the whole population, when compared to the untreated controls. The obtained results allow for a comparison of different compounds, using the same or different targeted cell lines. Cell survival fractions (SF), followed by the MTT 72-h viability assay for the HCT116 and SH-5YSY cells, are presented in the Supplementary File (Figure S1).
(§2) For cytological studies, human cancer cell lines were chosen, with special emphasis on the colorectal, HCT116, and neuroblastoma SH-5YSY cell lines, as well as lung normal epithelial BEAS-2B and cancer H1299 and A549 cancer cell lines (all obtained from the ATTC collection; Manassas, VA, USA). The cells were harvested under the standard conditions in incubator (5% CO2, 37 °C and 60% humidity; Panasonic model MCO-19 AIC). Cells were cultured in T75 mL sterile bottles (Sartedt), using DMEM-F12 medium (Merck, Poznań, Poland) supplemented with 10% of Fetal Bovine Serum (EURx, Gdańsk, Poland). During the experimental procedure, each cell line wasn’t more than 60–80% confluenced, no older than maximal number of passages 30. For adherent cell passages, the enzyme trypsin working solution, prepared in sodium phosphate buffer saline (PBS, pH = 7.4; PAN-Biotech Gmbh, Aidenbach, Germany), was used. The tested compounds were prepared as […] stocks in 100% DMSO (Merck, Poznań, Poland), and were stored at −20 °C. Before use in cytological studies, the working solution of each compound was prepared directly in complete DMEM-F12 medium. A positive-control, anticancer drug, etoposide (Merck, Poznań, Poland), was dissolved and prepared as solutions with doses of 20, 10, 5, 2.5, 1.25, 0.63 µM (0 µM for control, untreated cells in DMEM-F12 without any tested compound additions), respectively.
(§3) HCT116 and SH-5YSY cells collected after trypsinization were counted under the Bürker’s chamber, and 2000 or 5000 cells were seeded on each well of the 96-well-format sterile plate (Sarstedt, Nümbrecht, Germany), in 100 µL of complete DMEM-F12 medium, respectively. Twenty-four hours before compound addition, the cells were monitored directly on plates; only well-attached cells were used for treatments with background controls (DMSO with final maximal concentration of 1%) and untreated controls. The normal lung (BEAS-2B) and cancer (H1299 and […]) cell lines were cultured and prepared for viability MTT assay in similar way. To treat wells, 100 µL of tested compounds in fresh medium were added at concentration range of 100, 50, 25, 12.5, 6.25, 3.13 µM (0 µM for control, untreated cells in DMEM-F12 without any tested compound additions). An etoposide as a positive control, as anticancer drug, was prepared in similar way. Followed by 72 h of incubation, the viability assay was performed according to the producer protocol (Promega, Madison, WI, USA), where the medium and compounds were removed and cells were washed with PBS solution. A yellow tetrazolium salt (3-(4,5-dimethylthiazol-2-yl)-2,5-diphenyltetrazolium bromide solution (0.5 mg/mL) in serum and phenol red-free DMEM (Merck, Poznań, Poland) was added to each well on plates at a volume of 50 µL for 2–3 h of darkness, at 37 °C incubation. The purple formazan crystals were produced only by the viable cells, containing NAD (P)H-dependent oxidoreductase enzymes, which reduce the MTT. The crystals were dissolved in acidic (0.04 M HCl) 2-propanolol solution (Merck, Poznań, Poland) after addition of 75 µL of dissolving mixture to each well on plates for 5–10 min in darkness and at room-temperature (RT) incubation. The absorption at 570 nm was measured directly using multiplate reader (Epoch, BioTek, Winooski, VT, USA). Each time, the biological experiments were repeated three times.
(§4) Obtained absorbance was analyzed for proliferation and survival fraction (SF) assessments, where tested samples were compared to the untreated controls (100%). […]

In series [2] the test system is SH-SY5Y cells. The experiment in a line: 72-h MTT viability assay, SH-SY5Y. The settings on record: selectivity index, apparently IC50 BEAS-2B / IC50 SH-SY5Y; definition not given.
Text: as §1, §2, §3, §4

The test system of series [3] is H1299 cells. Briefly: 72-h MTT viability assay, H1299. The note with it: selectivity index, apparently IC50 BEAS-2B / IC50 H1299; definition not given.
Text: as §1, §2, §3, §4

Series [4] relates to HCT116 cells. Briefly: 72-h MTT viability assay, HCT116. The settings on record: selectivity index, apparently IC50 BEAS-2B / IC50 HCT116; definition not given.
Text: as §1, §2, §3, §4

Turning to `c1ccc2c3c(cnc2c1)Sc1cnc2ccccc2c1N3CCN1CCCC1` [Compound 2a, 14-(pyrrolidinylethyl)diquinothiazine], in series [1], the “SI (A549)” value is listed as 6.3. For the same compound, the “SI (SH-SY5Y)” value in series [2] amounted to 13. The “SI (H1299)” value in series [3] is 10.4. Besides, the “SI (HCT116)” value in series [4] was 7.6.
The like results for `O=C1CCCN1CCCN1c2c(cnc3ccccc23)Sc2cnc3ccccc3c21` [Compound 2b, 14-(pyrrolidinonylpropyl)diquinothiazine] were, in that order, 6.7, 10.8, 15.8 and 8.9.
On the same counts, the results for `c1ccc2c3c(cnc2c1)Sc1cnc2ccccc2c1N3CCN1CCOCC1` [Compound 2d] are 5.7, 8.7, 13.2 and 5.
On the same counts, the results for `c1ccc2c3c(cnc2c1)Sc1cnc2ccccc2c1N3CCN1CCNCC1` [Compound 2e, 14-(piperazinyloethyl)dichinotiazyny] are 2.6, 5.4, 3.8 and 2.5.
Take `CCN(CC)CCN1c2c(cnc3ccccc23)Sc2cnc3ccccc3c21` [Compound 2f]: the “SI (A549)” value in series [1] was 4.4. In addition, in series [3], the “SI (H1299)” value is listed as 5.5. Further, the “SI (HCT116)” value in series [4] stood at 7.2.
The like results for `FC(F)(F)c1ccc(N2c3c(cnc4ccccc34)Sc3cnc4ccccc4c32)cc1` [Compound 3b, 14-(4-trifluoromethylphenyl)diquinothiazine] were, in that order, 2.0, 5.9 and 5.0.
On the same counts, the results for `CSc1ccc(N2c3c(cnc4ccccc34)Sc3cnc4ccccc4c32)cc1` [Compound 3c, 14-(methylthiophenyl)diquinothiazine] are 4.0, 43.1 and 30.
For the compound `CC(=O)NCCN1c2c(cnc3ccccc23)Sc2cnc3ccccc3c21` [Compound 5a, 14-acetylaminoethyldiquinothiazine], in series [1], the “SI (A549)” value stood at 1.5. For the same compound, the “SI (SH-SY5Y)” value in series [2] is 4.4. For the same compound, in series [3], the “SI (H1299)” value is 4.1. Besides, in series [4], the “SI (HCT116)” value was 4.1.
Consider `CC(=O)NCCCN1c2c(cnc3ccccc23)Sc2cnc3ccccc3c21` [Compound 5b, 14-acetylaminopropyldiquinothiazine], for which the “SI (A549)” value in series [1] was determined as 1.5. In addition, in series [2], the “SI (SH-SY5Y)” value was 4.1. In addition, in series [3], the “SI (H1299)” value is 3.7. The “SI (HCT116)” value in series [4] is 4.9.
On the same counts, the results for `COc1cc([C@@H]2c3cc4c(cc3[C@@H](O[C@@H]3O[C@@H]5CO[C@@H](C)O[C@H]5[C@H](O)[C@H]3O)[C@H]3COC(=O)[C@H]23)OCO4)cc(OC)c1O` [etoposide, reference compound] are 0.001, 0.001, 0.005 and 0.0004.
